Measured values: US20230313199A1, “TARGET FOR MODULATING BODY MASS” (Massachusetts Institute of Technology, priority 2020, published 2023)
No constants are given. Whether binding was seen depends on the method and setting. In cells and extracts the contact can be indirect. Some binding calls cover weakened binding; strength is not graded here. Where a sequence is shown, tags or fusion partners need not be part of it.

Sequences of proteins named here, by UniProt entry; tags and fusion partners are left off.
UniProt O55143: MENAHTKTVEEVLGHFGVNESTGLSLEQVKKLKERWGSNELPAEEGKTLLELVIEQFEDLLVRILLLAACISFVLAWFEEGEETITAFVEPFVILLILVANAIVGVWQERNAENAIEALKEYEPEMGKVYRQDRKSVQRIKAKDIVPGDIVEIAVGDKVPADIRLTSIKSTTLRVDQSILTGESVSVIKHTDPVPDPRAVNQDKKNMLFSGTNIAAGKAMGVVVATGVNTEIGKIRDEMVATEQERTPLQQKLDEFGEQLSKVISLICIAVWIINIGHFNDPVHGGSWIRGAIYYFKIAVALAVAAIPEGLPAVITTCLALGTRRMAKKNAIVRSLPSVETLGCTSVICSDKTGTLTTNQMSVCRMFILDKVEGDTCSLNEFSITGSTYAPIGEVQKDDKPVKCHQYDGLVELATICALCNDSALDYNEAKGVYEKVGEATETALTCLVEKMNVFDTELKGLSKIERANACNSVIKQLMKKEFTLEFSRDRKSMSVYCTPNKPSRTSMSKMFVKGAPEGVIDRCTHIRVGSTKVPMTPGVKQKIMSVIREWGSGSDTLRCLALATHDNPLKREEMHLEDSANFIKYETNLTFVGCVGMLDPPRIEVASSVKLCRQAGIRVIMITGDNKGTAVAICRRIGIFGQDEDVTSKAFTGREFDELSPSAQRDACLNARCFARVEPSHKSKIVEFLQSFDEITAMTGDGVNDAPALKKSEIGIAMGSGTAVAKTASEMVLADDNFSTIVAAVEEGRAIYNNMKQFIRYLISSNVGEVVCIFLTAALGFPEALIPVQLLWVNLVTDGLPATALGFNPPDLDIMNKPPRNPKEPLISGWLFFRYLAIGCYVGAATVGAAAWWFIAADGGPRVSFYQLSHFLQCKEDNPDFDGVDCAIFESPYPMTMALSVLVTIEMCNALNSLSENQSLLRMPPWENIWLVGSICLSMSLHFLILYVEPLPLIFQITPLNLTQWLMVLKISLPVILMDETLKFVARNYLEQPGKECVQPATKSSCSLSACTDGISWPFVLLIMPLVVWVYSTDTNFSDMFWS

Target: T1, endogenous mouse SERCA2b (ATP2a2) (mouse, UniProt O55143 1-1044)
T1 construct: also called endogenous SERCA2b
Test: IP (anti-FLAG then anti-Myc) and LC-MS/MS, MH-S cell lysate

B1: endogenous MFSD7C of mouse bone marrow-derived macrophages (other, UniProt Q91X85 1-551, looked up)
chain: MVNESLNQEESNDRPAPESEFQMDTSYSTQPSGSIHPSVSGHPSVSGHPSVSGHPSVSIHPSVSIDPSVSVRPSSSALPSTLAQPSGLTHHSSLVREDSVIKVSKRRWVVVLVFSCYSLCNAFQWIQYGSINNIFMNFYGVSAFAIDWLSMCYMLTYIPLLLPVAWMLEKFGLRTIAITGSALNCLGAWVKLGSLEPHLFPVTMVGQVICSVAQVFILGMPSRIASVWFGADEVSTACSVAVFGNQLGIAIGFLVPPVLVPNIKDPEKLAYHISIMFYIIGGVATFLFILVIIVFKEKPKHPPSRAQSLSYALATTDASYLSSIVRLFKNLNFVLLVITYGLNAGAFYALSTLLNRMVILHFPGEEVNAGRIGLTIVIAGMFGAMISGIWLDKSKTYKETTLVVYIMTLVGMVVYTFTLNLNHLWVVFITAGTLGFFMTGYLPLGFEFAVELTYPESEGVSSGLLNVSAQVFGIVFTISQGQIIDNHGTMFGNIFLCVFLALGSALTAFIKSDLRRQRANKDAPETKVQEEEEEEEGSNTSKVPVVSEAHL
- binding: binds
